Measured values taken from article PMC7721357.
These are yes or no findings as the source states them, for the method shown. Binding seen in cells or lysates may run through a third protein. A yes stands for co-enrichment or nearness to the bait. Other partners may have been found. Sequences can lack the tags named with a protein.

Protein sequences, listed by entry. Tags and fused reporters are not part of them. Lines headed by an entry give the natural chain unless they say otherwise; changes in a name come on top.
UniProt P51617: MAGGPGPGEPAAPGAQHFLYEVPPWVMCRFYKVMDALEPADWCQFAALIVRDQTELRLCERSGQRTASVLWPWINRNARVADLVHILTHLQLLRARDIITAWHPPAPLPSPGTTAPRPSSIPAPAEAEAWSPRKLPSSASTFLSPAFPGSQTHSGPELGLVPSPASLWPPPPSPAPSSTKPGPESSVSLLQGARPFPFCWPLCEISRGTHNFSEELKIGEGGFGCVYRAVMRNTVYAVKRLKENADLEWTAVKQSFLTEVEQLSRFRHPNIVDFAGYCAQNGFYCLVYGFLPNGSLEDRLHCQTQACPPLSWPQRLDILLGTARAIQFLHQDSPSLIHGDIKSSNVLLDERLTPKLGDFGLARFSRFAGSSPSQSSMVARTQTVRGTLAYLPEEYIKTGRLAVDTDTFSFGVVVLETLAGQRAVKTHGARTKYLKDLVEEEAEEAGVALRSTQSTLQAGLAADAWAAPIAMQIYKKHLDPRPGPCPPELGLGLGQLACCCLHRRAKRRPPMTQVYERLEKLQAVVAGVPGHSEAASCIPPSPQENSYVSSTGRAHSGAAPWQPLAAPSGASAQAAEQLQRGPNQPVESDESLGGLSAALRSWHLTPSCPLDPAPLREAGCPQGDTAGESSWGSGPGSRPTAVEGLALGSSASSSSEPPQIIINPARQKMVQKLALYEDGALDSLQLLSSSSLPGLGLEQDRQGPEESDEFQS
UniProt Q13546: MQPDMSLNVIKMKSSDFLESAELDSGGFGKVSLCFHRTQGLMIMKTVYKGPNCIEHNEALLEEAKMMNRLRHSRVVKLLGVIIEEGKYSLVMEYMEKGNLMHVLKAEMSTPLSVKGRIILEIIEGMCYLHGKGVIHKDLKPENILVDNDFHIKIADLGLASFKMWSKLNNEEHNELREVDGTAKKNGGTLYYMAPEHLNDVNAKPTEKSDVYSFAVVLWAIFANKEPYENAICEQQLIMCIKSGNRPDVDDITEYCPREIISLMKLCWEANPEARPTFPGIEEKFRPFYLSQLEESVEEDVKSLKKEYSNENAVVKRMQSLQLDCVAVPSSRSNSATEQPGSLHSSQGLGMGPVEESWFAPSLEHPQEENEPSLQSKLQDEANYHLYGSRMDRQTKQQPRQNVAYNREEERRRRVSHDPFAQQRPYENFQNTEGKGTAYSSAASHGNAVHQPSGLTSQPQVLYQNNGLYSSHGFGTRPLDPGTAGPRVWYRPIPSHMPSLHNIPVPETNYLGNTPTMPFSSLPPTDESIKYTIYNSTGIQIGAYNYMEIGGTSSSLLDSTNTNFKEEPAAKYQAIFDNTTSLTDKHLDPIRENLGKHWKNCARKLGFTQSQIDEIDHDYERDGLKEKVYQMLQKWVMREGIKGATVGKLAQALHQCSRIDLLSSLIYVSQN
UniProt O60603: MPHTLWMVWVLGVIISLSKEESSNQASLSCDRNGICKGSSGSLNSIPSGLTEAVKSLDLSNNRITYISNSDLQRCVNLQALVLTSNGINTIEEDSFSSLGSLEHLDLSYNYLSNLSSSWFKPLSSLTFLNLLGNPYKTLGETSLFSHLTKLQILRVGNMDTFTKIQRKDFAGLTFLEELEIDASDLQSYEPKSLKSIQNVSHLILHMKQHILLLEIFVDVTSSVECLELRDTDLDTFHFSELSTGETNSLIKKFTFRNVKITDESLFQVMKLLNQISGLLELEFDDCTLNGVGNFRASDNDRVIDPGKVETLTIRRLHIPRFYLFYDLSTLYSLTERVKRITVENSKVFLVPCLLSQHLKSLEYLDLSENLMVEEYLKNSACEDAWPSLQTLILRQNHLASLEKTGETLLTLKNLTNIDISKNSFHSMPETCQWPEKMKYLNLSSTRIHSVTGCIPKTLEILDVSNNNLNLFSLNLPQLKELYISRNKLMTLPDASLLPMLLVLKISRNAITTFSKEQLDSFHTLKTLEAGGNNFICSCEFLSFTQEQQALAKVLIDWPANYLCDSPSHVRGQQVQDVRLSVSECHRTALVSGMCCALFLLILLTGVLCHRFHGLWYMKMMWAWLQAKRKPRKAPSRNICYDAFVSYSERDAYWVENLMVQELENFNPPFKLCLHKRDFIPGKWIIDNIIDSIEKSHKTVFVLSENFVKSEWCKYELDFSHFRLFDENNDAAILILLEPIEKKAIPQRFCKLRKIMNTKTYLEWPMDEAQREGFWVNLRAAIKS
UniProt Q9Y4K3: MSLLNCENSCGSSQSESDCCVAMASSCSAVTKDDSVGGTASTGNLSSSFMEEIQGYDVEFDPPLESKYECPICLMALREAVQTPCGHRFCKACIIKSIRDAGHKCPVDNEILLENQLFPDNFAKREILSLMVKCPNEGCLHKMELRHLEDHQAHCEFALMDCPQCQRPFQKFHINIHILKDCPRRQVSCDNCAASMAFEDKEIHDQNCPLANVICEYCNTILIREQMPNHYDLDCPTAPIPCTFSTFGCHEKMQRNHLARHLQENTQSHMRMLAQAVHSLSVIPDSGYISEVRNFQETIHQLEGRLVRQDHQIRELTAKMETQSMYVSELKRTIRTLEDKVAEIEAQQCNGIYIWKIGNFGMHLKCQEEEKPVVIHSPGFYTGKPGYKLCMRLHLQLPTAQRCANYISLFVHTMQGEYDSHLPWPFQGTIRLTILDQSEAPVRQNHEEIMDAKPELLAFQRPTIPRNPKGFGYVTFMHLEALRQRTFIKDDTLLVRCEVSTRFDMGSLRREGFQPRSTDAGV

Molecular target: T1, recombinant His-tagged rRv2626c (Mycobacterium tuberculosis H37Rv) (UniProt P9WJA3)
T1 sequence: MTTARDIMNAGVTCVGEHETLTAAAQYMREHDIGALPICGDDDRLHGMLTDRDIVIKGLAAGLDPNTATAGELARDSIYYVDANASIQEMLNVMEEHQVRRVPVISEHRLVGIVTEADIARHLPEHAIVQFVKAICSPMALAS
Experiment: affinity purification with mass spectrometry; only the target purified

Substance	binding
IRAK1 (from UniProt P51617 1-712) (enzyme)	binds
RIP1 (from UniProt Q13546 1-671) (enzyme)	binds
TLR2 (from UniProt O60603 21-784) (receptor)	binds
endogenous TRAF6 of THP-1 cells (from UniProt Q9Y4K3 1-522)	binds
